Measurements reported in paper doi:10.1101/530402.
Results are given in words; binding and its absence hold for the method and conditions named. In cells and extracts the contact can be indirect. Some results given as binding are weak or reduced against the parent protein; the word gives no strength.

Amino acid sequences for entries named in this document (tags omitted). Residues count along the entry.
UniProt P61163, whole entry: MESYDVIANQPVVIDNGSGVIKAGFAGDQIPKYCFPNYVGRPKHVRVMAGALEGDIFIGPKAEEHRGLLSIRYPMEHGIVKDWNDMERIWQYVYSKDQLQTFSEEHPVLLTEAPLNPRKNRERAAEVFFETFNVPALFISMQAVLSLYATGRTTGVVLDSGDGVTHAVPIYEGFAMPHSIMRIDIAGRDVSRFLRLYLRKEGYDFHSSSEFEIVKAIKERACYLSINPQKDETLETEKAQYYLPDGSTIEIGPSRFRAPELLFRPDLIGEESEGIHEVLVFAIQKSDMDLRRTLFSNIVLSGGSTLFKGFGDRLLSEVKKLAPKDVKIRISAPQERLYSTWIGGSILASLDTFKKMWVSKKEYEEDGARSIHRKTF
UniProt O60603, 21-784: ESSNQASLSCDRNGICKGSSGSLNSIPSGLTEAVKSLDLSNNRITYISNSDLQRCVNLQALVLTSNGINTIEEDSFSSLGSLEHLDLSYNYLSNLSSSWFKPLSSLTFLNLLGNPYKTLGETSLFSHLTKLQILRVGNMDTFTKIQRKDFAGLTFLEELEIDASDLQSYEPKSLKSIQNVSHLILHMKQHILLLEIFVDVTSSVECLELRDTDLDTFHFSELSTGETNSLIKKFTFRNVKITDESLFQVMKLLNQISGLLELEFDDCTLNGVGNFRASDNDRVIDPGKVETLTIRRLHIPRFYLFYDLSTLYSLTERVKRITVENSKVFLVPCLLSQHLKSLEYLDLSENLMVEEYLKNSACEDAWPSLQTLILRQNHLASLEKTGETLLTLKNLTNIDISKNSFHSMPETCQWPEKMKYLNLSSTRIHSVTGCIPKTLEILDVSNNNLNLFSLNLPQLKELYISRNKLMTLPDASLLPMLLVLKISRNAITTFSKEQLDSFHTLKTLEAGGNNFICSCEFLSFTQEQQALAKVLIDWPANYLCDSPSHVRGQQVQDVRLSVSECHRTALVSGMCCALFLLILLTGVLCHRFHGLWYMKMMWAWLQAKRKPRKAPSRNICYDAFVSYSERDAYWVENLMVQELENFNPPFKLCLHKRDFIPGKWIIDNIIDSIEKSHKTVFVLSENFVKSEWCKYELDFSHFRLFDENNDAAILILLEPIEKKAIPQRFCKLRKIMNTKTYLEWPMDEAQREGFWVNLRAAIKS

Assays:
Test in all cases: co-IP
[1] = biological target: T1, myristoylated alanine-rich C kinase substrate-like protein 1 (human (endogenous in HEK293)) (UniProt P49006)
T1 sequence: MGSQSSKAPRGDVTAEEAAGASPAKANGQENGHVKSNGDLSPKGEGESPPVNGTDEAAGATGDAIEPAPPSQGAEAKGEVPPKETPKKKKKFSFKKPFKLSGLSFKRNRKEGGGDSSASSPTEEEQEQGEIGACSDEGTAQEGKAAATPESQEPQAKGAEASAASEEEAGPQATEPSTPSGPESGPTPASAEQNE

[2] = biological target: alpha-centractin (human (endogenous in HEK293)) (UniProt P61163)
[3] = biological target: HA-tagged human Toll-like receptor 2 (human) (UniProt O60603)

| binding [1] | binding [2] | binding [3] | Substance |
| --- | --- | --- | --- |
| binds | binds |  | HA-tagged human Toll-like receptor 2 (from UniProt O60603 21-784) |
|  |  | binds | alpha-centractin (from UniProt P61163 1-376) |
